Assay results taken from the supplement of paper PMC10849652.
The other results are listed elsewhere or left out.

Chains of the proteins cited; added tags and fusions are not shown. Lines headed by an entry give the natural chain unless they say otherwise; changes in a name come on top.
UniProt O60927: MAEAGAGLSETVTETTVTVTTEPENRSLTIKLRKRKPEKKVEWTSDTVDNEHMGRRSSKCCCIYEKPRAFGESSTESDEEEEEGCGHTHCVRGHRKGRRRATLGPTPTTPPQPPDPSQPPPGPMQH
UniProt Q6P2P2: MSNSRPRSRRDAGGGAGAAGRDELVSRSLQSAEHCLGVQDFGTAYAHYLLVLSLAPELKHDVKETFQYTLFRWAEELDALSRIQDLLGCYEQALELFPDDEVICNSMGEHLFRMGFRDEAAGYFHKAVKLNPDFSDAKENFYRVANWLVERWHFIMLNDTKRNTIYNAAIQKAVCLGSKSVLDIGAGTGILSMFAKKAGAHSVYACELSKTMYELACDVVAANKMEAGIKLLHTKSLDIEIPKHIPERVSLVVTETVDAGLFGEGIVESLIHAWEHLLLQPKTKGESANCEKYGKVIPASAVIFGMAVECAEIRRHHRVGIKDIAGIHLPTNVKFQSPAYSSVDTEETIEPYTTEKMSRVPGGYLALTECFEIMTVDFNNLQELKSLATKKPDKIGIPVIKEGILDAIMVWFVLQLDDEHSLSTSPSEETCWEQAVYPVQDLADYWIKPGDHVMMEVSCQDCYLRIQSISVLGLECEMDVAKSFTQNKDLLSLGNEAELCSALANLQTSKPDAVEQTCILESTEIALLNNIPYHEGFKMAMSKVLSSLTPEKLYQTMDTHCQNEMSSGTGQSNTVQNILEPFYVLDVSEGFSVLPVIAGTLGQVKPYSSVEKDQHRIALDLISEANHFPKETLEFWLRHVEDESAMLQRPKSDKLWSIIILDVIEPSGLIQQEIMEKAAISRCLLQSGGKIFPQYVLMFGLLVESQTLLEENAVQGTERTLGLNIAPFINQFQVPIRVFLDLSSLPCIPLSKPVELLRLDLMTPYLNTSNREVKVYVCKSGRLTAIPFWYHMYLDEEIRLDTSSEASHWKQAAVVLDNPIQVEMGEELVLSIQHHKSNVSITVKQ
UniProt Q5H9R7: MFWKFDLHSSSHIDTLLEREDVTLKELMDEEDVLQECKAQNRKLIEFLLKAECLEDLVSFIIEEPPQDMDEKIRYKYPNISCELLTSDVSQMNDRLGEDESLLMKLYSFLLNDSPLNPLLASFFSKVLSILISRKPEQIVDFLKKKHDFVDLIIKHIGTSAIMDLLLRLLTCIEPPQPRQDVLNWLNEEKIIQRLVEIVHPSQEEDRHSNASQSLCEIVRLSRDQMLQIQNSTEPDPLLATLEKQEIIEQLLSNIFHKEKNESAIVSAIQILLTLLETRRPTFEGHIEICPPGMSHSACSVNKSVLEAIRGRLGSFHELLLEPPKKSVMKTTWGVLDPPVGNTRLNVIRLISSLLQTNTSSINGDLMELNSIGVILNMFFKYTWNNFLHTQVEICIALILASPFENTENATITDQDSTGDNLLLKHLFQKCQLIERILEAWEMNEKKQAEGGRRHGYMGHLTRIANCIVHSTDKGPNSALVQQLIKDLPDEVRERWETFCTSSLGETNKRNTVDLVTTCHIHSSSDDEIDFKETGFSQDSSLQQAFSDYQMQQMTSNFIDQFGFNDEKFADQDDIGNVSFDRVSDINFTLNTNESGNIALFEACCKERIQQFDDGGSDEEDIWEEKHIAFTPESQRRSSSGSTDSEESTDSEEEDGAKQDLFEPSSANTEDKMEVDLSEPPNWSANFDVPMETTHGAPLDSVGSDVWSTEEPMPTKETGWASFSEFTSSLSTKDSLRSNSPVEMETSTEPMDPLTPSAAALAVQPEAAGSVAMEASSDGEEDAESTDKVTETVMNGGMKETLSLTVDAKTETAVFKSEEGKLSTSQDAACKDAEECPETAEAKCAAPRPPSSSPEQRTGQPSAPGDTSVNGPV
UniProt P11908: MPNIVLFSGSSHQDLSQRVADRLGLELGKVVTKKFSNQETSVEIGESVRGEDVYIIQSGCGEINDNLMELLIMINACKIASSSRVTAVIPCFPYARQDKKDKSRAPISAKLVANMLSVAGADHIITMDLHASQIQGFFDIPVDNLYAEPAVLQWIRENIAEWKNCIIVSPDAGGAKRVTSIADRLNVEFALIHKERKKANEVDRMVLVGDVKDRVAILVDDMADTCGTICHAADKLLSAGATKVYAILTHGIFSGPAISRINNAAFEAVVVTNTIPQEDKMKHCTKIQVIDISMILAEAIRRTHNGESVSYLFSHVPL
UniProt Q86WR7: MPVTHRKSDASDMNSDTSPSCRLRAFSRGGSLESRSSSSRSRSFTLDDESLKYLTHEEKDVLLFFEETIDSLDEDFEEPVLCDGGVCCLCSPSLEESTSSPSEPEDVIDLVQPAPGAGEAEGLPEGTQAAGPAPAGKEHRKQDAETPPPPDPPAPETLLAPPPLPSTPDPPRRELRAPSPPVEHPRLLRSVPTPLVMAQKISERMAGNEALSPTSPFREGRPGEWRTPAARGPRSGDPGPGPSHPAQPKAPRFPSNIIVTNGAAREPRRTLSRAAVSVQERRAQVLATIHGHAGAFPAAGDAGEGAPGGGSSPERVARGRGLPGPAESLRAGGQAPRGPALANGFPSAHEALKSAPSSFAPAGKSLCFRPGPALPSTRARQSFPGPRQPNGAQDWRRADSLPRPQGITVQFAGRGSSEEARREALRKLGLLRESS
UniProt Q9UNN8: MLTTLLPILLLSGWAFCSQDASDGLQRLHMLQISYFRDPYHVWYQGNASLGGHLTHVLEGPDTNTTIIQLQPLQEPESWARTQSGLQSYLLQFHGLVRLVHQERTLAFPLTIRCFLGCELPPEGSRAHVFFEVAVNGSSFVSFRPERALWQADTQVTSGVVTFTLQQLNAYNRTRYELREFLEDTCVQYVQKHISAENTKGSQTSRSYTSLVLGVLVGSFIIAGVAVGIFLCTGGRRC
UniProt Q96LA8, whole entry, looked up: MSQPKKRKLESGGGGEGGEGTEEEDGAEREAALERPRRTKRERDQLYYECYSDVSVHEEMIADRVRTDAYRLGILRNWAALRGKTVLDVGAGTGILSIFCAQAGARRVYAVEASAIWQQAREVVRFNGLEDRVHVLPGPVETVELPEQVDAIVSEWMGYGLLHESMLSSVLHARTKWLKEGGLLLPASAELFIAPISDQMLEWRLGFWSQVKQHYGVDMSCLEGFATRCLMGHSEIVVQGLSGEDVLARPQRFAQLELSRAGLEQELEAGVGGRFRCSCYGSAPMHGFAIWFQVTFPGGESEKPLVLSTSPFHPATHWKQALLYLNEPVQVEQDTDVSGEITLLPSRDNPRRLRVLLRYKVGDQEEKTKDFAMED
UniProt Q9Y570: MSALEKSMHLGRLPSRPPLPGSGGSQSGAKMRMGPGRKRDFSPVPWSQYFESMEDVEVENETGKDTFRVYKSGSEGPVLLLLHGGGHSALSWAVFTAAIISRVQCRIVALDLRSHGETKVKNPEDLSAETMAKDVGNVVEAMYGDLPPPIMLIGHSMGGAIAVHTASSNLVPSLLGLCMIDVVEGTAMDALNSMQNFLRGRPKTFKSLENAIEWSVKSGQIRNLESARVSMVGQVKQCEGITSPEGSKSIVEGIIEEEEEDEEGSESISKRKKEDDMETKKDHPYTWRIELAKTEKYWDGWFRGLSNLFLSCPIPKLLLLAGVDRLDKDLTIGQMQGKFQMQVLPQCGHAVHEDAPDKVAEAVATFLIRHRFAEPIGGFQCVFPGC
UniProt Q15435: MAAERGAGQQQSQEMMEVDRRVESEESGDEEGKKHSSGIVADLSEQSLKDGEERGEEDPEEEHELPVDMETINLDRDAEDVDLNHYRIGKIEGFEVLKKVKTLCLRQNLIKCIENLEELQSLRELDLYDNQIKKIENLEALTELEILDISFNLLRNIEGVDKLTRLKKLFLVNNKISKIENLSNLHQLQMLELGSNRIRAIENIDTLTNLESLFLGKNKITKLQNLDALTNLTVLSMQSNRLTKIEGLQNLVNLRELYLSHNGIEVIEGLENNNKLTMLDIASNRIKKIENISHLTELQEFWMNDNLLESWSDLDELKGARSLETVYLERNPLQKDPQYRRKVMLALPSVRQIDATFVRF
UniProt Q96C90: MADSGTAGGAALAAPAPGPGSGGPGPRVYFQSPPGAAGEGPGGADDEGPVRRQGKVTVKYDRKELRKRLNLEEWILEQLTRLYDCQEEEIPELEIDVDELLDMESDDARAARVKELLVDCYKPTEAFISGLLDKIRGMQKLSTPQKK
UniProt Q8TAE6: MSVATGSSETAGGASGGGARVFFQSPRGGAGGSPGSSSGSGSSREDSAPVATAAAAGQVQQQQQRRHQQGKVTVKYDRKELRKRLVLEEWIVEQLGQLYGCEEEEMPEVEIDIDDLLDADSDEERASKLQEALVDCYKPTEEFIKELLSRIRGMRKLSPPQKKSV
UniProt P41743, whole entry, looked up: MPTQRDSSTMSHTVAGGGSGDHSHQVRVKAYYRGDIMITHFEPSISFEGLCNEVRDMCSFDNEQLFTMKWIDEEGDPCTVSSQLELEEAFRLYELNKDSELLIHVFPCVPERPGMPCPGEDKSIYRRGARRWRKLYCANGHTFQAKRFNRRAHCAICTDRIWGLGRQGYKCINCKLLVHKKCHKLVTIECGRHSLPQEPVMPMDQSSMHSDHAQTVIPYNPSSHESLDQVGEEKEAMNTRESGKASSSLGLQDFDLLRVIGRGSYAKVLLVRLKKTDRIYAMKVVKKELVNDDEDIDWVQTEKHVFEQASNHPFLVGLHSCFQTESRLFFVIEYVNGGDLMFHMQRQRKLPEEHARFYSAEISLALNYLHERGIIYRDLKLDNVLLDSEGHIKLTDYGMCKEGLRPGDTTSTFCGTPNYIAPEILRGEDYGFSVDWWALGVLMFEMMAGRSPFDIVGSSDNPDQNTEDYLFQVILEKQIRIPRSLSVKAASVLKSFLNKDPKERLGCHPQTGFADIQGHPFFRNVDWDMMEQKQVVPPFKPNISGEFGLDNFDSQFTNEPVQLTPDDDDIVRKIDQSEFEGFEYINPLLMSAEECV
UniProt Q8TF05: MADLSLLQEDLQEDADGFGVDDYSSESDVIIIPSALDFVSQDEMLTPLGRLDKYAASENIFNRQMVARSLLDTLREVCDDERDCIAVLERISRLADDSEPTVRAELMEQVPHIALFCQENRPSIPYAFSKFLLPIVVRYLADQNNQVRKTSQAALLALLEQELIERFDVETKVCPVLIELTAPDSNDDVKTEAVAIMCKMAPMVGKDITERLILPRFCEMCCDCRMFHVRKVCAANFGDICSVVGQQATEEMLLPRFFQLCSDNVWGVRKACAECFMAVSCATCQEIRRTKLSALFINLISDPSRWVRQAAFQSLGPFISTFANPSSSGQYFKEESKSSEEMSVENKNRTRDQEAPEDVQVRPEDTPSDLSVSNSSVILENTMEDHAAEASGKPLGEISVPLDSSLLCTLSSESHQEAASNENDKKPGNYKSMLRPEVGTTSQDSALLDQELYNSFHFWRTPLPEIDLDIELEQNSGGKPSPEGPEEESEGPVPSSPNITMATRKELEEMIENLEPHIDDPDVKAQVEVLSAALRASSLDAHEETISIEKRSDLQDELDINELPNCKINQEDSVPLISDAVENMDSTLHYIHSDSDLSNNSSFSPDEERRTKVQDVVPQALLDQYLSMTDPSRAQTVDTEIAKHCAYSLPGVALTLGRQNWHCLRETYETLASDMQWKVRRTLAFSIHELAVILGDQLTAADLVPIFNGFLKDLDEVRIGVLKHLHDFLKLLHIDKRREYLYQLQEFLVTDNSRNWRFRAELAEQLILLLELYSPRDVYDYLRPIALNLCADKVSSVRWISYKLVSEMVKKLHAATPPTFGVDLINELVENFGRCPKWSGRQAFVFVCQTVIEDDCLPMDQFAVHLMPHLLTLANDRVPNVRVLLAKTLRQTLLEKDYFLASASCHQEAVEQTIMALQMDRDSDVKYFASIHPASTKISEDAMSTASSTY
UniProt P30048: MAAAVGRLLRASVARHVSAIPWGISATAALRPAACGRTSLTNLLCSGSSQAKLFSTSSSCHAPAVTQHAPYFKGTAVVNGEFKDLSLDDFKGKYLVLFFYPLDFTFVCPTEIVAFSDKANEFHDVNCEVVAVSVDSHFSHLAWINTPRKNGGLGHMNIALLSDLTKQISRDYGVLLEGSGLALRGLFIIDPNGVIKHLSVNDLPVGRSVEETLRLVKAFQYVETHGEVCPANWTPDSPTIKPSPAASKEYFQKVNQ
UniProt P78395, whole entry, looked up: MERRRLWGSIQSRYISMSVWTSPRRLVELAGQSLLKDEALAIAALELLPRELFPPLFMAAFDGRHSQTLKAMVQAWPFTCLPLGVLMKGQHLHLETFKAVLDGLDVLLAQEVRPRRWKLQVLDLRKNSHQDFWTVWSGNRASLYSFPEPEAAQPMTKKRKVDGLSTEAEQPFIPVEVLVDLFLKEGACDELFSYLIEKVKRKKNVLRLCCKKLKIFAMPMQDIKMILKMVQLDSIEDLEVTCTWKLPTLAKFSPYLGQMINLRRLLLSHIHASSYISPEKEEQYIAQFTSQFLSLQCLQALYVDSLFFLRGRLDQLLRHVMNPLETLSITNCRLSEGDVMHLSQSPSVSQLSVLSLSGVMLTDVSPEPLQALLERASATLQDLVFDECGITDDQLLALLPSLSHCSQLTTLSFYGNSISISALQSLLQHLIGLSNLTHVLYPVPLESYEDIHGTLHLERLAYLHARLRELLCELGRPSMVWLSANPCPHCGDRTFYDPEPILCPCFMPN

Compound: c1cn2cc(-c3ccc4cn[nH]c4c3)nc(Nc3ccc(N4CCOCC4)cc3)c2n1 [entospletinib]
Experiment: log2 fold change, soluble protein after heating vs DMSO (PISA); higher = thermal stabilisation; K562 cells, 10 uM, 30 min; active = over 0.2 and 3.5 SD of the protein, either way, in both replicates (recomputed)
Method in brief: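 K562 cells (2×10^6 cells/mL) were treated with 10 μM compound for 30 min, and aliquots were heated for 3 min over 48°C-58°C. Pooled aliquots were extracted in PBS with 0.5% NP-40 at 4°C, and the supernatant after 21,000xg for 90 min was measured by TMTpro 16plex LC-MS/MS with channel sums equalised. Reported thermal stability, relative to control samples and from duplicates, is a log2 fold change.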

PRPS1 (UniProt P60891)
log2 fold change: inactive: -0.051

PPP1R9B (UniProt Q96SB3)
log2 fold change: inactive: 0.128

PPP1R11 (UniProt O60927)
log2 fold change: inactive: -0.024

PRKCSH (UniProt P14314)
log2 fold change: inactive: -0.001

PRMT1 (UniProt Q99873)
log2 fold change: inactive: -0.003

PPP2R2D (UniProt Q66LE6)
log2 fold change: inactive: 0.097

PPP3R1 (UniProt P63098)
log2 fold change: inactive: 0.054

PRMT9 (UniProt Q6P2P2)
log2 fold change: inactive: -0.127

PPP6R3 isoform 5 (UniProt Q5H9R7)
log2 fold change: inactive: 0.024

PRDX4 (UniProt Q13162)
log2 fold change: inactive: -0.008

PREB (UniProt Q9HCU5)
log2 fold change: inactive: -0.049

PPP2R1B (UniProt H0YDG7)
log2 fold change: inactive: 0.275

PRPS2 isoform 2 (UniProt P11908)
log2 fold change: inactive: -0.023

PPP4R2 (UniProt Q9NY27)
log2 fold change: inactive: 0.019

PROSER2 (UniProt Q86WR7)
log2 fold change: inactive: 0.015

PROCR (UniProt Q9UNN8)
log2 fold change: inactive: 0.018

PRKRA (UniProt O75569)
log2 fold change: inactive: 0.186

PRRC2B (UniProt Q5JSZ5)
log2 fold change: inactive: 0.04

PPM1E (UniProt Q8WY54)
log2 fold change: inactive: -0.025

PRRC2A (UniProt P48634)
log2 fold change: inactive: 0.076

PRPF18 (UniProt Q99633)
log2 fold change: inactive: 0.039

PRKCSH (UniProt K7ELL7)
log2 fold change: inactive: -0.002

PPP2R1B isoform 2 (UniProt P30154)
log2 fold change: inactive: -0.011

PPP3CA (UniProt Q08209)
log2 fold change: inactive: -0.058

PPP6C isoform 3 (UniProt O00743)
log2 fold change: inactive: 0.031

PRDX2 (UniProt P32119)
log2 fold change: inactive: 0.001

PRSS21 (UniProt Q9Y6M0)
log2 fold change: inactive: 0.019

PRMT6 (UniProt Q96LA8)
log2 fold change: inactive: -0.032

PPME1 (UniProt Q9Y570)
log2 fold change: inactive: -0.003

PRDM2 (UniProt Q13029)
log2 fold change: inactive: -0.007

PRKCSH isoform 2 (UniProt P14314)
log2 fold change: inactive: -0.083

PRPF8 (UniProt Q6P2Q9)
log2 fold change: inactive: -0.014

PRCC (UniProt Q92733)
log2 fold change: inactive: 0

PRKAG2 (UniProt Q9UGJ0)
log2 fold change: inactive: -0.064

PPP1R7 (UniProt Q15435)
log2 fold change: inactive: 0.043

PPP1R10 (UniProt Q96QC0)
log2 fold change: inactive: 0.107

PPP2R5D (UniProt Q14738)
log2 fold change: inactive: 0.043

PRKRIP1 (UniProt Q9H875)
log2 fold change: inactive: -0.021

PPP4R3A (UniProt Q6IN85)
log2 fold change: inactive: 0.052

PRRC1 (UniProt Q96M27)
log2 fold change: inactive: 0.018

PPP1R9A isoform 3 (UniProt Q9ULJ8)
log2 fold change: inactive: 0.068

PPP2CA (UniProt P67775)
log2 fold change: inactive: -0.018

PREPL (UniProt Q4J6C6)
log2 fold change: inactive: 0.005

PPP1R14B (UniProt Q96C90)
log2 fold change: inactive: -0.029

PPP1R14C (UniProt Q8TAE6)
log2 fold change: inactive: -0.022

PRPF19 (UniProt Q9UMS4)
log2 fold change: inactive: 0.023

PPP4C (UniProt P60510)
log2 fold change: inactive: 0.022

PRKCI (UniProt P41743)
log2 fold change: inactive: 0.048

PPP4R1 (UniProt Q8TF05)
log2 fold change: inactive: 0.014

PPP3CC isoform 3 (UniProt P48454)
log2 fold change: inactive: -0.006

PPM1H (UniProt Q9ULR3)
log2 fold change: inactive: -0.021

PPWD1 (UniProt Q96BP3)
log2 fold change: inactive: -0.008

PRDX6 (UniProt P30041)
log2 fold change: inactive: 0.024

PRDX3 (UniProt P30048)
log2 fold change: inactive: 0.044

PRAME (UniProt P78395)
log2 fold change: inactive: -0.027
